According to PubChem BioAssay AID296 (DTP/NCI, 2004):
The list shows only some results of the screen, not a fair sample: its compounds were picked by chemical class. Other doses and runs of a compound may be missing. T/C gives the treated animals as a percentage of the vehicle group. Schedules are NCI's codes, taken here to give the interval after Q, in days (D) or hours (H), and the number of doses after X. Some T/C values are negative: the treated tumours shrank. Some doses were run more than once; the values are given in rising order. Some T/C values carry the count of animals alive at the toxicity check; without a count or a note in brackets, all were alive then. Some entries give survivors of the animals treated and no T/C: the source holds a T/C of zero for them, seemingly a mark for toxic or unscored doses. Counts of survivors are from the toxicity check, whose day is not always given; animals may have died later. Some metal complexes and salts are drawn in pieces, as in the source, so charges may not balance.

Tested on: MX-1 breast xenograft, nude mice, tumor weight T/C
Assay: NCI In Vivo Anticancer Drug Screen. Data for tumor model Human Mammary Carcinoma MX-1 Xenograft (intrarenal inoculation) in NU/NU Swiss (nude) mice
Conditions: T/C endpoint: mean tumor weight change, higher T/C = larger tumour; for T/C: evaluated on day 11
Procedure: The antitumor activity of compounds was measured in mice bearing transplantable tumors. Survival or tumor size were measured and the results are expressed as the measurement made in the treated group (T) divided by the measurement made in the vehicle treated control group (C). The tumor model used in this assay is Human Mammary Carcinoma MX-1 Xenograft (intrarenal inoculation) in NU/NU Swiss (nude) mice

[1] = dose: 300.0 mg/kg/injection, schedule: Q04DX003 (sc), vehicle: Klucel (hydroxypropylcellulose) (HPC)
[2] = dose: 600.0 mg/kg/injection, schedule: Q04DX003 (sc), vehicle: Klucel (hydroxypropylcellulose) (HPC)
[3] = dose: 1200.0 mg/kg/injection, schedule: Q04DX003 (sc), vehicle: Klucel (hydroxypropylcellulose) (HPC)
[4] = dose: 2400.0 mg/kg/injection, schedule: Q04DX003 (sc), vehicle: Klucel (hydroxypropylcellulose) (HPC)
[5] = dose: 200.0 mg/kg/injection, schedule: Q04DX003 (sc), vehicle: suspension in saline
[6] = dose: 400.0 mg/kg/injection, schedule: Q04DX003 (sc), vehicle: suspension in saline
[7] = dose: 800.0 mg/kg/injection, schedule: Q04DX003 (sc), vehicle: suspension in saline
[8] = dose: 300.0 mg/kg/injection, schedule: Q04DX003 (sc), vehicle: saline with Tween-80
[9] = dose: 600.0 mg/kg/injection, schedule: Q04DX003 (sc), vehicle: saline with Tween-80
[10] = dose: 1200.0 mg/kg/injection, schedule: Q04DX003 (sc), vehicle: saline with Tween-80
[11] = dose: 100.0 mg/kg/injection, schedule: Q01DX010 (sc), vehicle: saline with Tween-80

Structure (SMILES): ClP1(Cl)=NP(Cl)(Cl)=NP(Cl)(Cl)=NP(Cl)(Cl)=N1
- T/C [1]: 68 % of control
- T/C [2]: 100 % of control
- T/C [3]: 63 % of control
- T/C [4]: 104 % of control

Structure (SMILES): CC(=O)OC(SC(OC(C)=O)C(Cl)(Cl)Cl)C(Cl)(Cl)Cl (stereo not drawn)
- T/C (dose: 100.0 mg/kg/injection, schedule: Q01DX010 (sc), vehicle: Klucel (hydroxypropylcellulose) (HPC)): 119 % of control
- T/C (dose: 200.0 mg/kg/injection, schedule: Q01DX010 (sc), vehicle: Klucel (hydroxypropylcellulose) (HPC)): 158 % of control
- T/C (dose: 400.0 mg/kg/injection, schedule: Q01DX010 (sc), vehicle: Klucel (hydroxypropylcellulose) (HPC)): 114 % of control
- T/C (dose: 800.0 mg/kg/injection, schedule: Q01DX010 (sc), vehicle: Klucel (hydroxypropylcellulose) (HPC)): 115 % of control

Structure (SMILES): ICCN(CCI)c1cccc2ccccc12
- T/C (dose: 75.0 mg/kg/injection, schedule: Q04DX003 (sc), vehicle: Klucel (hydroxypropylcellulose) (HPC)): 27 and 82 % of control
- T/C (dose: 150.0 mg/kg/injection, schedule: Q04DX003 (sc), vehicle: Klucel (hydroxypropylcellulose) (HPC)): 19 and 32 % of control [5 of 6 alive on day 11]
- T/C [1]: 2 and 29 % of control
- T/C [2]: 23 % of control
- survivor count [2]: 3 of 6 on day 11

Structure (SMILES): Cc1ccc(Sc2ccc([N+](=O)[O-])cc2[N+](=O)[O-])c([N+](=O)[O-])c1
- T/C (dose: 100.0 mg/kg/injection, schedule: Q04DX003 (sc), vehicle: suspension in saline): 134 % of control
- T/C [5]: 145 % of control
- T/C [6]: 191 % of control
- T/C [7]: 164 % of control

Structure (SMILES): CCCNC(=O)c1ccc(N(CCCl)CCCl)cc1
- T/C [1]: 155 % of control
- T/C [2]: 141 % of control [5 of 6 alive on day 11]
- T/C [3]: 105 % of control
- T/C [4]: 94 % of control

Structure (SMILES): [Au].[C-]#N.[C-]#N
- T/C (dose: 5.0 mg/kg/injection, schedule: Q04DX003 (sc), vehicle: saline): 120 % of control
- T/C (dose: 10.0 mg/kg/injection, schedule: Q04DX003 (sc), vehicle: saline): 82 % of control
- T/C (dose: 20.0 mg/kg/injection, schedule: Q04DX003 (sc), vehicle: saline): 61 % of control
- survivor count (dose: 40.0 mg/kg/injection, schedule: Q04DX003 (sc), vehicle: saline): 0 of 6 on day 11

Structure (SMILES): NC(=O)c1[nH]cnc1/N=N\N(CCCl)CCCl
- T/C (dose: 75.0 mg/kg/injection, schedule: Q04DX003 (sc), vehicle: saline with Tween-80): 62 % of control
- T/C (dose: 150.0 mg/kg/injection, schedule: Q04DX003 (sc), vehicle: saline with Tween-80): 40, 74, 97, 151 % of control [5 of 6 alive on day 11]
- T/C [8]: 1 [5 of 6 alive on day 11], 26, 33, 90 % of control
- T/C [9]: -63 [4 of 6 alive on day 11] and 4 % of control
- survivor count [9]: 2 of 6 on day 11 and 3 of 6 on day 11
- T/C [10]: -30 and 68 % of control
- survivor count [10]: 0 of 6 on day 11

Structure (SMILES): ClC1CSC1
- T/C [8]: 14 and 78 % of control
- T/C [9]: 20 % of control
- survivor count [9]: 0 of 6 on day 11
- T/C [10]: 1 % of control
- survivor count [10]: 0 of 6 on day 11
- survivor count (dose: 2400.0 mg/kg/injection, schedule: Q04DX003 (sc), vehicle: saline with Tween-80): 0 of 6 on day 11 and 2 of 6 on day 11

Structure (SMILES): CC1(C)CN1P(=O)(Nc1ncccn1)N1CC1(C)C (stereo not drawn)
- T/C [5]: 35 and 40 % of control
- T/C [6]: 4 and 8 % of control
- T/C [7]: -100 [5 of 6 alive on day 11] and -21 % of control [4 of 6 alive on day 11]
- survivor count (dose: 1600.0 mg/kg/injection, schedule: Q04DX003 (sc), vehicle: suspension in saline): 1 of 6 on day 11 and 2 of 6 on day 11

Structure (SMILES): Nc1cc([As]=O)ccc1O (stereo not drawn)
- T/C (dose: 25.0 mg/kg/injection, schedule: Q01DX010 (sc), vehicle: saline with Tween-80): 80 and 97 % of control
- T/C (dose: 50.0 mg/kg/injection, schedule: Q01DX010 (sc), vehicle: saline with Tween-80): 50, 66, 85, 92 % of control
- T/C [11]: 9 [2 of 3 alive on day 11], 28, 47 % of control
- survivor count [11]: 0 of 6 on day 11
- survivor count (dose: 200.0 mg/kg/injection, schedule: Q01DX010 (sc), vehicle: saline with Tween-80): 0 of 3 on day 11 and 0 of 6 on day 11
- survivor count (dose: 400.0 mg/kg/injection, schedule: Q01DX010 (sc), vehicle: saline with Tween-80): 0 of 6 on day 11
